Data taken from patent publication US10793579B2, “Bicyclic-fused heteroaryl or aryl compounds” (Pfizer Inc., priority 2014, dated 2020).
At least one compound was matched to its structure with a doubt left.

Test system: imiquimod induced skin inflammation (ear thickness)
Assay: Imiquimod Induced Mouse Model of Skin Inflammation
Format: in vivo
Settings: mice, PO BID daily x 5 days, compared to Vehicle

## CC[C@@H]1[C@H](F)C(=O)N[C@@H]1COc1nccc2cc(C(N)=O)c(OC)cc12 [Example 296, 1-{[(2S,3S,4S)-3-ethyl-4-fluoro-5-oxopyrrolidin-2-yl]methoxy}-7-methoxyisoquinoline-6-carboxamide]
  Mean change in ear swelling from baseline on day 5: significantly reduced ear swelling
